# Source: paper PMC3458821
# Protein sequences, listed by entry. Tags and fused reporters are not part of them. Lines headed by an entry give the natural chain unless they say otherwise; changes in a name come on top.
# UniProt P53197: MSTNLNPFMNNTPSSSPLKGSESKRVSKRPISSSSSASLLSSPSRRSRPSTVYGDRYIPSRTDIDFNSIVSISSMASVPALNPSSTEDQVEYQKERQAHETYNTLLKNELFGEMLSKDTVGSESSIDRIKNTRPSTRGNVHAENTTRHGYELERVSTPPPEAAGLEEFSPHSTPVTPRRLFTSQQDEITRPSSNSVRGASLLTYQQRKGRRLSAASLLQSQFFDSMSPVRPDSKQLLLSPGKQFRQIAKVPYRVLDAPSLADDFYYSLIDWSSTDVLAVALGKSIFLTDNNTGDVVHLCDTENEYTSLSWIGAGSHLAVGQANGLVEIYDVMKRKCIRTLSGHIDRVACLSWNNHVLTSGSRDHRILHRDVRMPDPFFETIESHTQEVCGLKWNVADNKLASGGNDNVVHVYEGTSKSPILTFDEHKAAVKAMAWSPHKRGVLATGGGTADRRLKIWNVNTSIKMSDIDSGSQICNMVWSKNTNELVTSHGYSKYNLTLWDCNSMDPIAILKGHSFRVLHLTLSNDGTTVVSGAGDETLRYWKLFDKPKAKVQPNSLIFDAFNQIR
# No constants are given. Whether binding was seen depends on the method and setting. Binding calls can cover weak binding; strength is not graded here.
# B1: Acm1 (protein, UniProt Q08981 1-209)
# chain: MISPSKKRTILSSKNINQKPRAVVKGNELRSPSKRRSQIDTDYALRRSPIKTIQISKAAQFMLYEETAEERNIAVHRHNEIYNNNNSVSNENNPSQVKENLSPAKICPYERAFLREGGRIALKDLSVDEFKGYIQDPLTDETIPLTLPLGDKKISLPSFITPPRNSKISIFFTSKHQGQNPETKISRSTDDVSEKKVVRKLSFHVYEDE
# B2: Ybr138C (two-hybrid prey) (protein, UniProt P38277 1-524)
# chain: MEKDQIQPRVLESVDTNSLSLLSSNTSSNMNSNTNNKLSIIASDISTGSVLSRPLTPPVVQDIENNSMLQWQFEKKEFIFDSNSTPSKQAKPLQRNSPYQGNSQSENQNQQLLNVRKRRSQLIGAKPKIPSKLYQSVSKLDLIDDKSFTSLPIAPPCNIETNEDDSGNNEYNNNKKRPRLNPVNELRVHNNKRNRYVSYGPSLDTKNYELTENTSQDIPPLVLVEDYIPYTQSKSTKKMVSISDLKSKLSKRRDNHIPLRVKNSYSEINKETNRNSFEPNSLTLIPHILRNTEENRDESNNPLDFIKEEIEISDISIPNSIENMVVNLVNIPSSNKSYDDLYLSELNVHSQLRKCVICEKALYEISSRLLNSGYYKEIVCEQCTVRYEEAAKIFENCEFESSMDESNLSSGTFSDLENSAEPFHLSTDVPKKINRHIEDNKIDLKKEISKKKDSFSKELIERLQLQLLENDKSIKHHFNKDAMGSKSMNWFLEARRKLKWKWRINGLLPHFLRNQNSDRLNFQP
# B3: Fir1 (two-hybrid prey) (protein, UniProt P40020 1-876)
# chain: MSLPVTPVKSKVCSTLSIQHEMDHDQCRDVLCPRENLLAINRTNNIESVAIPRQRSSKNKKPHEHTQSQVRFSIPDPNEISQDSPLKIVFPKSGNETERRMSTSSLLMNSHGHLVDMHSKILVDVPKEVWKFHHNRRKKCESRHRKTRSDVRSNTSSSGKEPNHSRSKSLQSIIVDTMNTYRATEVETSINENTSNISQVSPLNLSFDRPPPLTPEKNLYLTPESPLNRYHLPVPLEISLPPYLSPQNKDKKRSSLVYDGDGYSQFQEGNTSSSTESSLEQPSSSYSDEDDSIPYAHHDVSFELNNADADKLLGIDENANVNLKIQRRNLKNPQHIKSKTDRECEEKNTEKNVSLKILSTPNKLIDIPDLEHMKSPPSTGLNGTLKFFQQFEPSEEPTSPTRQVNPESLDKLDMSFKFPSSTTNNNVDKVHENRNSGDTNNEDFLKVDTSPVNQSFESRRQMLIDLQKSPTNNNPRIHKHRRSRSVHNIDDISLNFEATSTPPAPTSAPSIPVEHSNPCTSIEIPKRSPLRFTSSPKTSDIPPEAQSPKNGSFLQEISVPSIQIIPDESISHTREPSPSLIECPEDENEAFSTEVADHSIAIISETKSVPSIEPFKPLSSFNSFGQEIQNKEPTPLNQTPTDLIGKQRNCVNPHSIPFSVLSSNSQSSQSGSSKSSYNSEFSSNTAITDTTSQPSVTINRSTLEHNFIEEKRSIKNLGHGPPSQKNNYSFPRNKNTPSNRHDLDFNTIYEKRDGKMVEVILLDEDEDVGLKNNDISRTRVCHAQKAKNEQQKKRLSHCNEILGMCDKTADDAKRIIYQLVNEKHKFSEKGQQTKPKKSRVLPPLPFPLYDEKGNSLIPNKYQSSIHNDIPSHRKLK
# B4: Tos4 (two-hybrid prey, entire open reading frame) (protein, UniProt Q06266 1-489)
# chain: MSSQFPSSPYRTVDPYSPPNYKQQPNCPSSNYEKAGKTASESIGNFGKGDYPTPFPSSSIGRVSSPVRSNKVDAIPSSPAFPGQLAETSPKFSSKLSSPSRHTRVINAELDPSKISTITVGRNSSQCDVALCKNKFISRVHASITYLPQTNEVKIHCFSMNGLIVTYRKQFDCYQLKDTMNNNNRAYRLVPRFSNEKCVKEIQDEGGFINFTLEEGDTVYMTYYKGIMLDFRQVLLRISLKEKNSSSEPLRFEKKAEFESESETKHMGSIRKHPLIFTDTSMDRPKKILKDSNKISIGSDSGVAERMLNHFLNSKSSPLSSVSSVDHEEQTLRQDSLSSDKNPMTMKKPKLNKRVLPSKPKKSVKENLDELSRRNIDVMHLQHILTNHLAFANVQQTPLFQLQQVNSQISELSRDELRSILSDAKCVGVIYRHGKDAAGKPLDEEYFYDLENDDDYERRNLVSSLKGGRTGLRSCRRTHKQYFWKKPAK
# B5: Pdr3 411-976 (two-hybrid library clone) (domain or fragment, UniProt P33200 411-976)
# chain: LCYAYYNVTLYHMLDINTLDYLEILVSLLEIQNEIDERFGFEKMLEVAVTCSTKMGLSRWEYYVGIDENTAERRRKIWWKIYSLEKRFLTDLGDLSLINEHQMNCLLPKDFRDMGFINHKEFLTKIGTSSLSPSSPKLKNLSLSRLIEYGELAIAQIVGDFFSETLYNEKFTSLEVSVKPTIIRQKLLEKVFEDIESFRLKLAKIKLHTSRVFQVAHCKYPEYPKNDLIEAAKFVSYHKNTWFSILGAVNNLIARLSEDPEVITEQSMKYANEMFQEWREINQFLIQVDTDFIVWACLDFYELIFFVMASKFYVEDPHITLEDVINTLKVFKRITNIISFFNNNLDEKDYDCQTFREFSRSSSLVAISIRIIFLKYCYAEQIDRAEFIERLKEVEPGLSDLLREFFDTRSFIYRYMLKSVEKSGFHLIIRKMLESDYKFLYRDKLATGNIPDQGNSSQISQLYDSTAPSYNNASASAANSPLKLSSLLNSGEESYTQDASENVPCNLRHQDRSLQQTKRQHSAPSQISANENNIYNLGTLEEFVSSGDLTDLYHTLWNDNTSYPFL
# Molecular target: Cdh1-ΔN200-D12 (S. cerevisiae) (UniProt P53197)
# Assay: two-hybrid; pJ69-4a strains with bait plasmids mated with pJ69-4α strains with activation domain plasmids; diploids struck onto plates lacking leucine, tryptophan, histidine and adenine; growth indicates interaction
row,Binder,binding
1,B1,binds
2,B2,no binding
3,B3,no binding
4,B4,no binding
5,B5,no binding
